Measured values taken from paper doi:10.1101/2021.03.23.436655.
Substitutions are numbered along the chain they refer to. Numbers in names are those of the source. Results are given in words; binding and its absence hold for the method and conditions named. For part of these data: Binding can be weak; no strength is given. Where a sequence is shown, tags or fusion partners need not be part of it.

B1: Maternal expression at 31B (Me31B), GAL4 activation domain fusion (protein, UniProt P23128 1-459)
chain: MMTEKLNSGHTNLTSKGIINDLQIAGNTSDDMGWKSKLKLPPKDNRFKTTDVTDTRGNEFEEFCLKRELLMGIFEKGWERPSPIQEAAIPIALSGKDVLARAKNGTGKTGAYCIPVLEQIDPTKDYIQALVMVPTRELALQTSQICIELAKHLDIRVMVTTGGTILKDDILRIYQKVQLIIATPGRILDLMDKKVADMSHCRILVLDEADKLLSLDFQGMLDHVILKLPKDPQILLFSATFPLTVKNFMEKHLREPYEINLMEELTLKGVTQYYAFVQERQKVHCLNTLFSKLQINQSIIFCNSTQRVELLAKKITELGYCCYYIHAKMAQAHRNRVFHDFRQGLCRNLVCSDLFTRGIDVQAVNVVINFDFPRMAETYLHRIGRSGRFGHLGIAINLITYEDRFDLHRIEKELGTEIKPIPKVIDPALYVANVGASVGDTCNNSDLNNSANEEGNVSK
B2: Me31B F63A, GAL4 activation domain fusion (protein, UniProt P23128 1-459)
chain: B1 chain with F63A

Key:
[1] = target: eIF4E-3, GAL4 DNA-binding domain fusion (Drosophila melanogaster); assay: two-hybrid
[2] = target: eIF4E-3 F103A, GAL4 DNA-binding domain fusion (Drosophila melanogaster); assay: two-hybrid

Binder | binding [1] | binding [2]
B1 | binds | no binding
B2 | no binding | 
